This is one part of the list.

The chains behind the UniProt entries cited, without tags or fusion partners. Where a name states a change or a piece, a line headed by the entry shows the natural chain unless it says otherwise.
UniProt Q9H8P0: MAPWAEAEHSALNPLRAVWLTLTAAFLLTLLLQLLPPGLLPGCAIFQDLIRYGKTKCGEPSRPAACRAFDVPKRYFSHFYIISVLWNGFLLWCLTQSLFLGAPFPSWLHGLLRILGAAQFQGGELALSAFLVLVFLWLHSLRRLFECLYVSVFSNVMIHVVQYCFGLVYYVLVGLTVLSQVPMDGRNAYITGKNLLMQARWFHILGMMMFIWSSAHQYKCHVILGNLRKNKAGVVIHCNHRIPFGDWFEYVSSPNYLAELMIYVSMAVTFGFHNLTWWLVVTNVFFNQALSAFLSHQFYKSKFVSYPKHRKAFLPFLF
UniProt Q8NB90: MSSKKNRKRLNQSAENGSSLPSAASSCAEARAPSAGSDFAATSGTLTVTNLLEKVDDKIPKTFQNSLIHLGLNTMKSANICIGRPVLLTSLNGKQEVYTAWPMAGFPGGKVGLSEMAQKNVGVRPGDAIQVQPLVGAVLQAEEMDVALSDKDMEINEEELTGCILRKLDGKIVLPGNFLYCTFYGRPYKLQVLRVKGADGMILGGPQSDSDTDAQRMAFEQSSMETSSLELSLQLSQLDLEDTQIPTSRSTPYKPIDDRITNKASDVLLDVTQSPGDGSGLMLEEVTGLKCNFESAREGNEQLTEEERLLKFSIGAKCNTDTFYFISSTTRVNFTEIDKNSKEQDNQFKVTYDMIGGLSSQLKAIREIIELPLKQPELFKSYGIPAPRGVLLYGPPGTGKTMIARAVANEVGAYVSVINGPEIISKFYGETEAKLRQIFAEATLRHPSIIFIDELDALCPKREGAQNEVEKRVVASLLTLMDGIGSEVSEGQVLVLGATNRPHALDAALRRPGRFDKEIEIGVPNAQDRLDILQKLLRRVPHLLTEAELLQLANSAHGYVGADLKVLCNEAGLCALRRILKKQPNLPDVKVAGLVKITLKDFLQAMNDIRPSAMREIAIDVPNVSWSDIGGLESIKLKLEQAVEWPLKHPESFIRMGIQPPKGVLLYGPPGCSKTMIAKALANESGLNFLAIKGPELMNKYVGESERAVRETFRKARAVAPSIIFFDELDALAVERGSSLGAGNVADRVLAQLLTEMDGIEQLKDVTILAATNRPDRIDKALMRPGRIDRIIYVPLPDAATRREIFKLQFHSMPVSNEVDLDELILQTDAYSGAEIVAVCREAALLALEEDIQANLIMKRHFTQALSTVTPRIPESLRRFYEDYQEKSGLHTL
UniProt Q8N5C6: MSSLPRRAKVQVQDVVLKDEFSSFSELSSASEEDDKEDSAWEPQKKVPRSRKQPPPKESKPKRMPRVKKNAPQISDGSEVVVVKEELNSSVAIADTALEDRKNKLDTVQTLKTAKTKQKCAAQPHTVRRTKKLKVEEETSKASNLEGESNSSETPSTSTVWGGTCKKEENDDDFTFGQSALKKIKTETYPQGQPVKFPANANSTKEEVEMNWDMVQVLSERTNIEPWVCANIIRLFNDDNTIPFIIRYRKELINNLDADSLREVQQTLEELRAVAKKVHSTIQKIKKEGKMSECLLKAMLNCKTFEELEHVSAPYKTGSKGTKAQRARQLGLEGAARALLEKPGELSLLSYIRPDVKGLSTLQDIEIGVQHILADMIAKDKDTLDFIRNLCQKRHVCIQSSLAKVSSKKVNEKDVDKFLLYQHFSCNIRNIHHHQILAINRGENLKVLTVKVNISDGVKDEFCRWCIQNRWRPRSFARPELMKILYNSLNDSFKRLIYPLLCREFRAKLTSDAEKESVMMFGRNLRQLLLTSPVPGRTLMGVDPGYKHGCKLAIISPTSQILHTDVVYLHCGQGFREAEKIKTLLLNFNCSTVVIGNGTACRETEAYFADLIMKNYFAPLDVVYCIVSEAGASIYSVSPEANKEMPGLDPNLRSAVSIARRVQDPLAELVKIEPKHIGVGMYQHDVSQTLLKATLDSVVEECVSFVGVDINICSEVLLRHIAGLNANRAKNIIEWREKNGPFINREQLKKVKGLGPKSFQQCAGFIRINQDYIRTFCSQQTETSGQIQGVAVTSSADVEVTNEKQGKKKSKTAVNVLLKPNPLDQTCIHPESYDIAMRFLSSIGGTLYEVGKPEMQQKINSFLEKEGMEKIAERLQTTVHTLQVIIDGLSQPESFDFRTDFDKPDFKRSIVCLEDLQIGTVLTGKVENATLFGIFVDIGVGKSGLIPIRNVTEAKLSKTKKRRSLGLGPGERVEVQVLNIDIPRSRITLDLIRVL
UniProt Q00796: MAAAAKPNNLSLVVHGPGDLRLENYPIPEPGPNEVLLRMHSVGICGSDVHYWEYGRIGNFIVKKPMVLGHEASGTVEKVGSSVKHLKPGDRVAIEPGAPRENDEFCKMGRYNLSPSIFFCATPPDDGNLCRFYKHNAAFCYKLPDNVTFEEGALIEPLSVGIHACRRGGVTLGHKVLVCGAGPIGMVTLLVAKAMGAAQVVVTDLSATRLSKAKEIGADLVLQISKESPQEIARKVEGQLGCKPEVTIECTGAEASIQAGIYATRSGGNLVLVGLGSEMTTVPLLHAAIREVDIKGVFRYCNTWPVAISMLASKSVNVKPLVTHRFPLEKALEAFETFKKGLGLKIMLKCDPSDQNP
UniProt O60493, whole entry, looked up: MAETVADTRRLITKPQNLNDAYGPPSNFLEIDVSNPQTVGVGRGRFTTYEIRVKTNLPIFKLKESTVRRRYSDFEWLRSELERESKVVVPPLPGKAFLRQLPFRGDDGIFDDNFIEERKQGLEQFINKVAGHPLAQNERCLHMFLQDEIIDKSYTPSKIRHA
UniProt P09132: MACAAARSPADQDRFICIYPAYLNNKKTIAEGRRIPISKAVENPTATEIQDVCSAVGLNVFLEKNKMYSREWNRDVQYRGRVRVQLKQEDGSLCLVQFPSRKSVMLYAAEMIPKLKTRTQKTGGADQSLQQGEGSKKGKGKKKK
UniProt O94964: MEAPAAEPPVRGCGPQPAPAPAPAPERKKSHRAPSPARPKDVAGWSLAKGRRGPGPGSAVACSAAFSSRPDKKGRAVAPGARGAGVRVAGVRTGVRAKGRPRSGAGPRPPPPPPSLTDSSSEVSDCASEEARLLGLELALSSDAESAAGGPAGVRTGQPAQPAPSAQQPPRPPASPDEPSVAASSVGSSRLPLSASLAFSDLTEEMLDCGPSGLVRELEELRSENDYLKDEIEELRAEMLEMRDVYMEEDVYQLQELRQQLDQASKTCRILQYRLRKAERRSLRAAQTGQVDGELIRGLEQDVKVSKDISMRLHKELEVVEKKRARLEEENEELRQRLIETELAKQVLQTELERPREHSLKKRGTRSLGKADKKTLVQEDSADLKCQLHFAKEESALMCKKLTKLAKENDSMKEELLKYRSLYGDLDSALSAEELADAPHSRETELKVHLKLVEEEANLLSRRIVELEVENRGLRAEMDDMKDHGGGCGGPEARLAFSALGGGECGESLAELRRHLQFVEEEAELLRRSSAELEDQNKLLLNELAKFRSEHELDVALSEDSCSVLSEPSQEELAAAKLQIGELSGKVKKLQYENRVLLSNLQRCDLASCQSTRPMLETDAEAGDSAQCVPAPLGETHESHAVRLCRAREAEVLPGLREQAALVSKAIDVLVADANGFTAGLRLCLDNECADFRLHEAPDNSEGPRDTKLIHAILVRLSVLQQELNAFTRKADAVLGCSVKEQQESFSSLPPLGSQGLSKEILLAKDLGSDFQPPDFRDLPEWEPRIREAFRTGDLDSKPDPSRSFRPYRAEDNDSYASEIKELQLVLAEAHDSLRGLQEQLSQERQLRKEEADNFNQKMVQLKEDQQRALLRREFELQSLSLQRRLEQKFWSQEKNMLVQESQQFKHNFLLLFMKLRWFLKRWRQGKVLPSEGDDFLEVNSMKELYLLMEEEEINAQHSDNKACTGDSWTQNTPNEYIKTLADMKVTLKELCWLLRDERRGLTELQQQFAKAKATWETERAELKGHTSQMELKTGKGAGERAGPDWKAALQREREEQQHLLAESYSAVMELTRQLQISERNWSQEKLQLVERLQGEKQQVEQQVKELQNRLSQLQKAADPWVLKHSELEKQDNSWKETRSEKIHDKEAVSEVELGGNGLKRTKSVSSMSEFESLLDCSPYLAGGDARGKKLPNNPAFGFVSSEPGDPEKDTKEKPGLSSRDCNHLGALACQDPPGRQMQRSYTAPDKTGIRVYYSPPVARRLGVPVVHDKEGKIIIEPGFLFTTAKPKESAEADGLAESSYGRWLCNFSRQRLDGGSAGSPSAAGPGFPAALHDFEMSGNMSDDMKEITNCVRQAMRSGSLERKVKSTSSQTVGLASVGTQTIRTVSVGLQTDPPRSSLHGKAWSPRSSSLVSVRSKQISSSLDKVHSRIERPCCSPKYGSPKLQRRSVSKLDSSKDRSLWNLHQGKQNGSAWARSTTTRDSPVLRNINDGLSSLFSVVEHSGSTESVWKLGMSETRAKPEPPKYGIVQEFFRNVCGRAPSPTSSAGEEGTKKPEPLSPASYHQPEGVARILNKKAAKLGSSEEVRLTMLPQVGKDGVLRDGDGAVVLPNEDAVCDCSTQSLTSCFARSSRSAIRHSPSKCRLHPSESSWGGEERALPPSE
UniProt Q9UHB9: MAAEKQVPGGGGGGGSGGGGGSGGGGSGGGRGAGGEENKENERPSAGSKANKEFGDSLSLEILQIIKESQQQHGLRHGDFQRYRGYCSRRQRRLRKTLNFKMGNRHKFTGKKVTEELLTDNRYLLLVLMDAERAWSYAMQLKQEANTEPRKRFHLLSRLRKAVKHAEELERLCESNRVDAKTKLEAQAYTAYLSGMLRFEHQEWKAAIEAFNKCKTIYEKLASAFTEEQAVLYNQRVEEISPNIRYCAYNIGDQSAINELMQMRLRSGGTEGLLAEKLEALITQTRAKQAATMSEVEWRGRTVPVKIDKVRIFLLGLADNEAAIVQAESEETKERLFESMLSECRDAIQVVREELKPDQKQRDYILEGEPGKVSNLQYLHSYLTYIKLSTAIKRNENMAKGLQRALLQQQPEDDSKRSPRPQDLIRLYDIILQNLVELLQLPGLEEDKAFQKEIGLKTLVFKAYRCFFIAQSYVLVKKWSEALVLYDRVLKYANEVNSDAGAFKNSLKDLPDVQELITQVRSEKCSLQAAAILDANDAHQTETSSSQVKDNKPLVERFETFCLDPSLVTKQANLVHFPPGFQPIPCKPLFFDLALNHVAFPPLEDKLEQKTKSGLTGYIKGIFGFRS
UniProt Q02447: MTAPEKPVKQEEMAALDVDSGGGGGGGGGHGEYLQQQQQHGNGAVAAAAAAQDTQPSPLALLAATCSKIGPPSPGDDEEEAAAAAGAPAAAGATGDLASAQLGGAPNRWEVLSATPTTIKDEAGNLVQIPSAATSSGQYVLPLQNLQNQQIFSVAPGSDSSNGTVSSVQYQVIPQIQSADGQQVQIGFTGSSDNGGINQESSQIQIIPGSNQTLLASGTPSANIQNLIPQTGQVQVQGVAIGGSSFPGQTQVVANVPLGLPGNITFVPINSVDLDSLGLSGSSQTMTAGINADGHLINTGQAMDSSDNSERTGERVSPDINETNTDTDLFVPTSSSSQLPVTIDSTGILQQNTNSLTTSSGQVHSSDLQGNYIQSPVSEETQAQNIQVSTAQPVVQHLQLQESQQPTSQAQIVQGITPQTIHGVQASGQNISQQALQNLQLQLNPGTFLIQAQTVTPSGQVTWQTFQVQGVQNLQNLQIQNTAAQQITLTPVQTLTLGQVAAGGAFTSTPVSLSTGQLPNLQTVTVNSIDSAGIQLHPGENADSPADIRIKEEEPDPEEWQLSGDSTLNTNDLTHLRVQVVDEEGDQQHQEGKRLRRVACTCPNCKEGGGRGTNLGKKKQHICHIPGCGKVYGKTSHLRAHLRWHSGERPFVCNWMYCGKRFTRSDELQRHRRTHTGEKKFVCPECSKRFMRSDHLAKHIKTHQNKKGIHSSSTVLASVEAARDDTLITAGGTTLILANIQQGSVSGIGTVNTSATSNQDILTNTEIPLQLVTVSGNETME
UniProt Q9Y5X3: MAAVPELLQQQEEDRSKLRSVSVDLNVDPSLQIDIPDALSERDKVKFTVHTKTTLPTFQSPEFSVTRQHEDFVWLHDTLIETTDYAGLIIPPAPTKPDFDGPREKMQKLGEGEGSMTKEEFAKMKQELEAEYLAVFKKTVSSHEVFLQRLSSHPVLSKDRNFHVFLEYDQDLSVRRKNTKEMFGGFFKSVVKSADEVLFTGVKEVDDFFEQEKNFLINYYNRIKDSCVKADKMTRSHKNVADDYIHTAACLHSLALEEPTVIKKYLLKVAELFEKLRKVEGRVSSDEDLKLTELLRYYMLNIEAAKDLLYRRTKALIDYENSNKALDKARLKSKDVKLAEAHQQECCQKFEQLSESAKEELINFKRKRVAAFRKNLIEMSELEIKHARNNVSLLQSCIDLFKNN

The text below walks through data of the supplement of paper PMC12067093, “Discovery and optimisation of a covalent ligand for TRIM25 and its application to targeted protein ubiquitination” (Chemical Science, 2025).

Compound in this assay: Cc1cc(ccc1-c1ccccc1)C(=O)N1CCCN(CC1)C(=O)CCl [compound 10]
In words: probe-labelled cysteine peptide fold change vs DMSO (competition) (log2 fold change); higher = less target engagement (more negative = stronger competition). Particulars: THP-1, incubation time: 4 h.
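Further: competitive profiling in live THP-1 cells: cysteine peptides tagged with an iodoacetamide desthiobiotin (IA-DTB) probe, intensity after compound treatment relative to DMSO-treated cells.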

On to “SRD5A3_Q9H8P0_238_AGVVIHCNHR (UniProt Q9H8P0)”, for which the “probe-labelled cysteine peptide fold change” value is 0.233 (10 µM) and -0.282 (50 µM).

Turning to “SPECC1_Q5M775_598_DLLELSCNELR (UniProt Q5M775)”, the “probe-labelled cysteine peptide fold change” value (10 µM) worked out at 0.311 and the “probe-labelled cysteine peptide fold change” value (50 µM) was 0.0805.

In the case of “SNX27_Q96L92_30_NGGGGGGGGSGLHCAGNGGGGGGGPR (UniProt Q96L92)”, the “probe-labelled cysteine peptide fold change” value (10 µM) is -0.141 and the “probe-labelled cysteine peptide fold change” value (50 µM) was -0.383.

“SPATA5_Q8NB90_81_SANICIGRPVLLTSLNGK (UniProt Q8NB90)”: the “probe-labelled cysteine peptide fold change” value (10 µM) turned out to be 0.0626 and the “probe-labelled cysteine peptide fold change” value (50 µM) came out at 0.0171.

Regarding “SRBD1_Q8N5C6_397_HVCIQSSLAK (UniProt Q8N5C6)”, the “probe-labelled cysteine peptide fold change” value (10 µM) was -0.0282 and the “probe-labelled cysteine peptide fold change” value (50 µM) is -0.148.

With “SPTBN1_Q01082_619+624_VAHMEFCYQELCQLAAER (UniProt Q01082)”, the “probe-labelled cysteine peptide fold change” value is, setting by setting: (10 µM) -0.357; (50 µM) 0.0504.

Regarding “SORD_Q00796_165_LPDNVTFEEGALIEPLSVGIHACR (UniProt Q00796)”, the “probe-labelled cysteine peptide fold change” value (10 µM) stood at 0.00881 and the “probe-labelled cysteine peptide fold change” value (50 µM) was 0.188.

Turning to “SNX3_O60493_140_CLHMFLQDEIIDKSYTPSKIRHA (UniProt O60493)”, the “probe-labelled cysteine peptide fold change” value (10 µM) was -0.108 and the “probe-labelled cysteine peptide fold change” value (50 µM) was -0.219.

For the target “SORD_Q00796_350_CDPSDQNP (UniProt Q00796)”, the “probe-labelled cysteine peptide fold change” value runs as follows: (10 µM) -0.0388; (50 µM) -0.0976.

For “SRP19_P09132_53_AVENPTATEIQDVCSAVGLNVFLEK (UniProt P09132)”, the “probe-labelled cysteine peptide fold change” value runs as follows: (10 µM) 0.00125; (50 µM) 0.052.

Take “SOGA1_O94964_984_DCNHLGALACQDPPGR (UniProt O94964)”: the “probe-labelled cysteine peptide fold change” value is -0.177 (10 µM) and -0.193 (50 µM).

On to “SRP68_Q9UHB9_586_QANLVHFPPGFQPIPCK (UniProt Q9UHB9)”, for which the “probe-labelled cysteine peptide fold change” value runs as follows: (10 µM) 0.0722; (50 µM) 0.0253.

Regarding “SP3_Q02447_628_KQHICHIPGCGK (UniProt Q02447)”, the “probe-labelled cysteine peptide fold change” value is, setting by setting: (10 µM) -0.201; (50 µM) -0.623.

Consider “SNX5_Q9Y5X3_250_NVADDYIHTAACLHSLALEEPTVIKK (UniProt Q9Y5X3)”, for which the “probe-labelled cysteine peptide fold change” value is, setting by setting: (10 µM) -0.206; (50 µM) -0.436.
